Data reported in PubChem BioAssay AID2685 (National Center for Advancing Translational Sciences (NCATS), 2010).
Some of the results follow. These are further read-outs of the screen, such as a control signal, another cell line or another target. No call is given for them. Compounds called inactive in the main read-out are mostly missing here. Potencies come from curve fits of mixed quality, noted in brackets.

Assay: qHTS Assay for Lipid Storage Modulators in Drosophila S3 Cells;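 as to cell number change: cells counted by Cell Tracker Red CMTPX staining in the red channel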
Details: BODIPY lipid droplet fluorescence, 18-24 h; for cell number change: measured here: cell count max response, cells fed with added oleic acid
Summary of the method: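 Laser-scanning cytometry quantifies lipid droplet accumulation (500–530 nm total intensity; droplet/cell object ratio) in oleic acid-fed (400 uM added) Drosophila S3 cells treated with a concentration series. 20 uM Triacsin C defined 100% inhibition.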

[1] = measured here: lipid fluorescence (Fed channel) AC50, cells fed with added oleic acid
[2] = measured here: cell number channel AC50, cells fed with added oleic acid

SMILES	cell number change [%]	AC50 [1]	AC50 [2]
COc1ccc(/C=C/C(=O)Oc2ccc(/C=N/NC(=O)c3ccncc3)cc2)cc1	14.3	0.58 µM [rising, single point]	–
CCCCC(=O)NC(c1ccccc1Cl)c1c(O)ccc2ccccc12 (stereo not drawn)	-2.86	0.082 µM [falling, single point]	–
COCCCNc1oc(-c2cccs2)nc1S(=O)(=O)c1ccc(C)cc1	-0.615	0.82 µM [falling, full curve, poor fit]	0.00461 µM [falling, full curve, poor fit]
CCOP(=O)(NC(c1ccccc1)c1nc2ccccc2[nH]c1=O)OCC (stereo not drawn)	-22.5	–	–
CSc1ccc(C(=O)C2CCCN(C(=O)CN3CCOC3=O)C2)cc1 (stereo not drawn)	24.6	0.164 µM [rising, full curve, poor fit]	–
C=CCOc1c(Br)cc(/C=C(\C#N)C(N)=O)cc1OC	0.264	–	6.51 µM [falling, single point]
CCOC(=O)N1CCN(C(=O)C2CCN(S(=O)(=O)c3ccc(Cl)cc3)CC2)CC1	6.03	0.517 µM [falling, single point]	–
Cn1c(=O)[nH]c(=O)c2c1nc(N1CCN(CCO)CC1)n2Cc1ccccc1Cl	20.4	7.31 µM [rising, single point]	–
COc1cc(C(=O)Nc2nc3ccc(S(C)(=O)=O)cc3s2)cc(OC)c1C	-12.7	3.66 µM [falling, single point]	3.66 µM [falling, single point]
CCOC(=O)/C(C#N)=C\c1ccc(O)c(OC)c1	-51.7	–	16.4 µM [falling, partial curve]
CCCNC(=O)COc1coc(CN2CCN(c3cccc(Cl)c3)CC2)cc1=O	40.8	23.1 µM [rising, partial curve]	4.11 µM [rising, partial curve]
Cc1ccc(C(C(=O)NC2CCCCC2)N(CC2CCCO2)C(=O)CNC(=O)c2cccs2)cc1 (stereo not drawn)	-31	2.59 µM [falling, partial curve]	3.26 µM [falling, partial curve]
CCCCCc1ccc(OCCOCCn2c[n+](C)c3ccccc32)c(CCCCC)c1	-84.1	3.66 µM [falling, partial curve]	4.11 µM [falling, partial curve]
C=CCSc1nc2c(c(=N)n1CC=C)C1CCCC1S2 (stereo not drawn)	-44.5	9.2 µM [rising, partial curve, poor fit]	16.4 µM [falling, partial curve, poor fit]

Reprinted at random: two compounds from above
SMILES	cell number change [%]	AC50 [1]	AC50 [2]
CCOC(=O)N1CCN(C(=O)C2CCN(S(=O)(=O)c3ccc(Cl)cc3)CC2)CC1	6.03	0.517 µM [falling, single point]	–
CCOC(=O)/C(C#N)=C\c1ccc(O)c(OC)c1	-51.7	–	16.4 µM [falling, partial curve]
